From ChEMBL document CHEMBL1145327, “Structural insights into monoamine oxidase inhibitory potency and selectivity of 7-substituted coumarins from ligand- and target-based approaches” (J Med Chem, 2006)

Experiments:
[1] = biological target: T1, Amine oxidase [flavin-containing] A (Rattus norvegicus, UniProt P21396); assay type: mitochondria, Sprague-Dawley, Mitochondria
T1 sequence (P21396 whole entry): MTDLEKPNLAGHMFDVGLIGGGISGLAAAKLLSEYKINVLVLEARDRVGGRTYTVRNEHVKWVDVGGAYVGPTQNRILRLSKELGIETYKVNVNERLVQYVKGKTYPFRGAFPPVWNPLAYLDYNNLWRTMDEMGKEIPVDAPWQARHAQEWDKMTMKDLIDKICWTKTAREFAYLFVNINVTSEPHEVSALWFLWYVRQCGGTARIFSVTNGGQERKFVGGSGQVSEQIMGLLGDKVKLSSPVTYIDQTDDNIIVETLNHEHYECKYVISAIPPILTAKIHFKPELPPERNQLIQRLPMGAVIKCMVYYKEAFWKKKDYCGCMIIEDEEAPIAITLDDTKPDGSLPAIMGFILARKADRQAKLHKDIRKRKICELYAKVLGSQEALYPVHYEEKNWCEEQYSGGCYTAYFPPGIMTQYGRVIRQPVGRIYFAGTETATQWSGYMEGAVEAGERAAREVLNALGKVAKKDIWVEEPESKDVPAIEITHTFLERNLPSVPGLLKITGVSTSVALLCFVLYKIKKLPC

[2] = biological target: T2, Amine oxidase [flavin-containing] B (Rattus norvegicus, UniProt P19643); assay type: mitochondria, Sprague-Dawley, Mitochondria
T2 sequence (P19643 whole entry): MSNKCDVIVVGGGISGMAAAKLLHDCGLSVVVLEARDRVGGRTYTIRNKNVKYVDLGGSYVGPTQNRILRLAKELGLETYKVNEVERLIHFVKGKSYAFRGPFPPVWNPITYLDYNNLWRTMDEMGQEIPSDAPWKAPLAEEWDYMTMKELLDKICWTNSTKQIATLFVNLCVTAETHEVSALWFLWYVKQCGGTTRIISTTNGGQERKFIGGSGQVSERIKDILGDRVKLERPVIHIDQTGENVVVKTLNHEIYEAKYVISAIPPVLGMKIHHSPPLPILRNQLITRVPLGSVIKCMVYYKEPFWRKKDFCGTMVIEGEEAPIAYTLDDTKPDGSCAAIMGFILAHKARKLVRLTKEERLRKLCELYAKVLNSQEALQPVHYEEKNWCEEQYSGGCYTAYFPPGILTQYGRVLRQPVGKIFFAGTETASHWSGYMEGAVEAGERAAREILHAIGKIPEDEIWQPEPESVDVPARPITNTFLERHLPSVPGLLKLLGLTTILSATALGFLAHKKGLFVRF

SMILES: O=c1ccc2ccc(OS(=O)(=O)c3ccccc3)cc2o1
- IC50 [1]: 0.447 µM
- IC50 [2]: 55 µM
